The values that follow come from PubChem BioAssay.

This is one part of the list. These are further read-outs of the screen, such as a control signal, another cell line or another target. No call is given for them. The list favours compounds with an active or inconclusive main result.

A short description of assay [1]: reducers of endogenous Her2 protein level, primary screen, SKBR3 breast tumor cells, AlphaScreen, ATP viability (AID 461).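 Also: percent of carrier control wells set as 100% viability.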 To be noted: 18-24 h, measured here: SKBR3 viability, ATP luminescence, at 10 µM. On the technique in general: Bead proximity is the source of the signal in Alpha formats.
Assay [2] is described as follows: reversal of MRP1-mediated doxorubicin resistance, pilot screen, H69AR cells, doxorubicin co-treatment (AID 601). To be noted: CellTiter-Glo, 72 h, at 10 µM.
Where [3] appears, read: H69AR cells + 2 uM doxorubicin, measured here: viability with 2 uM doxorubicin, stronger effect = lower value.
[4] abbreviates: H69AR cells, compound alone cytotoxicity.

One may read the viability as a read-out of living cells in per cent, often relative to untreated cells. For the compound `Cc1nc(SCC(=O)Nc2cc(C)on2)c2c3c(sc2n1)CCCC3`, the viability in assay [1] is 66.5%. `CNCCCN1c2ccccc2CCc2ccccc21`: in assay [1], the viability is 61.5%. Turning to `CC(=O)SCC(=O)N=c1sc2cc(F)ccc2n1C`, in assay [1], the viability is 90.5%. For the compound `COc1cccc(-c2cc(C(=O)Nc3c(C)nn(Cc4ccccc4)c3C)no2)c1`, in assay [1], the viability was 158%. Consider `Cc1ccc(N2C(=O)c3oc4ccccc4c(=O)c3C2c2cccc(O)c2)nc1` (stereo unspecified), for which, in assay [1], the viability came out at 102%.

As for `C=C(C)COc1ccc(-c2n[nH]c(C)c2-c2ccccc2)c(O)c1`, in assay [1], the viability is 56%.

Regarding `O=C(O)C1C2C=CC(C3CC23)C1C(=O)NCCc1ccccc1` (stereo unspecified), the viability in assay [1] stood at 101%.

Take `Cn1nc(CC(=O)Nc2ccc(N3CCN(C(=O)OC(C)(C)C)CC3)cc2)c2ccccc2c1=O`: the viability in assay [1] was 84%.

For the compound `CCCNS(=O)(=O)c1ccc(OCC(=O)Nc2ccccc2F)cc1`, the viability in assay [1] amounted to 96.5%.

For the compound `CN(C)CC(C(=O)c1ccccc1)c1ccccc1` (stereo unspecified), the viability in assay [1] was 30.5%. Turning to `CCOC(=O)c1cnc2c(OC)cccc2c1N1CCN(c2ccc(OC)cc2)CC1`, the viability in assay [1] amounted to 124%. Regarding `CCOc1cc(/C=N/n2cnnc2)cc(Br)c1O`, the viability in assay [1] amounted to 104%. On to `C(=C\c1ccccc1)/CSc1nnc(-c2ccccn2)n1Cc1ccco1`, for which, in assay [1], the viability was 84%. Turning to `O=C(c1ccco1)N1CCN(CCCCN2C(=O)c3ccccc3C2=O)CC1`, the viability in assay [1] was determined as 102%. Consider `O=C(C1CC1)N1CCc2cc(Br)cc(S(=O)(=O)N3CCOCC3)c21`, for which, in assay [1], the viability amounted to 98%. Still for that read-out and setting: to `COc1cc(C2c3c(oc4c(C)cc(C)cc4c3=O)C(=O)N2Cc2cccnc2)ccc1O` (stereo unspecified) belongs 78%; to `CCC1CCCCN1c1nc(-c2ccncc2)nc2ccccc12` (stereo unspecified), 76.5%; to `CC(C)CCn1c(SCC#N)nc2c(sc3ccccc32)c1=O`, 102%.

In the case of `CSC1=N/C(=C\C=C\c2cccs2)C(=O)S1`, the viability in assay [1] amounted to 95%. For `CC1=C(C(=O)OC2CCCCCC2)C(c2ccc(C)o2)C2=C(CCCC2=O)N1` (stereo unspecified), the viability in assay [1] stood at 124%. As for `CC1CC(C)CN(Cc2nc3c(c(=O)n(C)c(=O)n3C)n2Cc2ccccc2Cl)C1` (stereo unspecified), the values for the viability in assay [2] (setting [3]) and in assay [2] (setting [4]) were 52.2% and 89.5%, respectively. Take `CCN1CCN(c2ncnc3c2cnn3-c2ccc(C)cc2C)CC1`: the viability in assay [2] (setting [3]) worked out at 19.1%; in assay [2] (setting [4]), 73.7%.

`Cc1ccc2oc(=O)c3cnn(CC(=O)N4CCCCC4C)c3c2c1` (stereo unspecified): the viability came to 40.7% in assay [2] (setting [3]) and 89.2% in assay [2] (setting [4]). Turning to `CCOC(=O)c1cc2c(=O)n3ccccc3nc2n(CC2CCCO2)c1=NC(C)=O` (stereo unspecified), the viability in assay [2] (setting [3]) worked out at 27.1%; in assay [2] (setting [4]), 81.1%.

Consider `COc1cccc(-c2cc(C(=O)Nc3cc(C)n(Cc4ccc(Cl)cc4)n3)no2)c1`, for which the viability in assay [1] stood at 57.5%. As to `CCOC(=O)C1=C(C)Nc2nc(SCC(=O)OC)nn2C1c1cc(F)cc(F)c1` (stereo unspecified), the viability in assay [1] stood at 91.5%. Turning to `CCCNC(=O)c1cc(-c2ccco2)on1`, the results for the viability in assay [2] (setting [3]) and in assay [2] (setting [4]) were 43.5% and 97.4%, respectively. Taken in the same sequence, the figures for `CC1(C)Cc2c(C#N)c(SCCC#N)nc(N3CCOCC3)c2CS1` were 26.5% and 84.2%.

As to `CCN(CCCCOC(=O)c1ccc(OC)c(OC)c1)C(C)Cc1ccc(OC)cc1` (stereo unspecified), the viability in assay [1] was 88%. Consider `Cc1ccc(-n2ncc3c(N4CCN(c5ccccc5)CC4)ncnc32)c(C)c1`, for which the viability stood at 25.4% in assay [2] (setting [3]) and 80.3% in assay [2] (setting [4]). Take `CCOC(=O)C1CCCN(c2c(Nc3ccc(C)c(C)c3)c(=O)c2=O)C1` (stereo unspecified): the viability in assay [2] (setting [3]) is 35.1%; in assay [2] (setting [4]), 87.6%. In the case of `CCOC(=O)c1[nH]c2ccc(F)cc2c1NC(=O)C(C)N1CCc2cc(OC)c(OC)cc2C1` (stereo unspecified), the viability in assay [1] was 99%.

With `Cc1ccc(Cn2nnc3c(=O)[nH]c(C4CCN(S(=O)(=O)c5ccc(F)cc5)CC4)nc32)cc1`, the viability in assay [2] (setting [3]) was found to be 31.2%; in assay [2] (setting [4]), 86.2%. For `CCOC(=O)N1CCC(n2c(SCC(=O)NCc3ccco3)nc3ccsc3c2=O)CC1`, the values for the viability in assay [1], in assay [2] (setting [3]) and in assay [2] (setting [4]) were 81%, 23.3% and 78.5%, respectively. As to `Cc1cc(=O)oc2cc(OCC#N)ccc12`, the viability in assay [1] was found to be 112%. In the case of `Cn1c(=N)c(S(=O)(=O)c2ccccc2)cc2c(=O)n3ccccc3nc21`, the viability worked out at 23.9% in assay [2] (setting [3]) and 75% in assay [2] (setting [4]).

On to `Cc1ccccc1Cn1c(=O)c2c(nc3n2CCCN3Cc2ccccc2)n(C)c1=O`, for which the viability in assay [2] (setting [3]) came out at 22.2%; in assay [2] (setting [4]) it was 78.5%.

Turning to `FC(F)(F)COc1nc(N2CCCCC2)nc(N2CCNCC2)n1`, the viability in assay [1] came to 82%. On to `C=CCN1C(=O)/C(=C2/Sc3ccccc3N2C)SC1=Nc1c(C)n[nH]c1C`, for which the viability was 24% in assay [2] (setting [3]) and 75.5% in assay [2] (setting [4]). In the same order, the values of `O=C(NCCc1ccccc1)c1cc(-c2ccco2)on1` are 46.8% and 88.6%. Consider `Cn1c(=O)n(Cc2ccccc2)c(=O)c2c1nc(NCC1CCCO1)n2Cc1ccccc1` (stereo unspecified), for which the results for the viability in assay [2] (setting [3]) and in assay [2] (setting [4]) were 26.3% and 73.3%, respectively. Consider `CC(C)CC1NC2(C(=O)N(C)c3ccccc32)C2C(=O)N(C(C)C)C(=O)C12` (stereo unspecified), for which the viability in assay [2] (setting [3]) came to 59.6%; in assay [2] (setting [4]), 99.1%. In the case of `CCC(=O)OC1(C#CCOc2ccc(OC)cc2)CCN(C)CC1`, the viability in assay [1] came to 94%. Regarding `Cc1cccc2cc(CN(Cc3nnnn3Cc3ccco3)C3CCCC3)c3nnnn3c12`, the figures for the viability in assay [2] (setting [3]) and in assay [2] (setting [4]) were 25.3% and 85.6%, respectively. In the same order, the values of `COc1ccc(C)cc1-n1c(N)c(C#N)c(C#N)c1-c1ccc(OC)c(OC)c1OC` are 16.8% and 72.9%.

Regarding `CN1CCc2c(sc3c2c(=O)n(-c2ccccc2)c2nnc(SCc4ccc(F)cc4)n32)C1`, the viability stood at 34.6% in assay [2] (setting [3]) and 102% in assay [2] (setting [4]). In the same order, the values of `COCCn1c(SCC(=O)N2CCc3ccccc32)nc2c(c1=O)SC(C)C2` (stereo unspecified) are 42.6% and 78.8%.

With `O=C(C1CCCCC1)N1CCC(c2nc3c(nnn3Cc3ccccc3Cl)c(=O)[nH]2)CC1`, the viability in assay [2] (setting [3]) was found to be 19.2%; in assay [2] (setting [4]) it was 73.9%. Take `O=c1[nH]c2ccc(Br)cc2c(-c2ccccc2)c1N1CCOCC1`: the viability in assay [2] (setting [3]) worked out at 17.1%; in assay [2] (setting [4]), 75.7%. In the same order, the values of `Cc1ccc(C2C3CN(C(C)C)CC=C3C(C#N)=C(N)C2(C#N)C#N)cc1` (stereo unspecified) are 14.3% and 62%.

On to `Cc1ccc(-c2oc3ccccc3c(=O)c2O)cc1`, for which the viability in assay [1] was found to be 78.5%. Consider `Cc1ccc2c(c1)C(N1CCCC1=O)CC(c1ccco1)N2` (stereo unspecified), for which, in assay [1], the viability worked out at 108%. `CCOC(=O)c1sc(NC(=O)CSc2nnc(-c3ccco3)n2CC)c(C(=O)OCC)c1C`: the values for the viability in assay [2] (setting [3]) and in assay [2] (setting [4]) were 20.2% and 74.2%, respectively. In the same order, the values of `C=CCSc1nnc2n(-c3ccccc3OC)c(=O)c3c4c(sc3n12)CCC4` are 28.9% and 89.1%. Taken in the same sequence, the figures for `O=C(COc1ccccc1)N1CCN(c2ncnc3c2cnn3-c2ccccc2)CC1` were 33.5% and 74.8%. Regarding `Fc1ccc(C2C3=C(Nc4ncnn42)c2ccccc2OC3c2ccncc2)cc1` (stereo unspecified), the viability came out at 24.6% in assay [2] (setting [3]) and 78.8% in assay [2] (setting [4]). `Cc1ccc(C)c(N2CCN(C(=O)c3cc4ccccn4n3)CC2)c1`: the viability in assay [2] (setting [3]) amounted to 64.9%; in assay [2] (setting [4]) it was 99.8%.
